This is one part of the list. These are raw signals, not scaled to a control.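 First-pass screen: polymyxin B was added at a level that permeabilizes the Salmonella outer membrane while sparing the inner membrane. DMSO wells, with and without polymyxin B, defined maximum growth. Because plates differed from one another, each plate's data were ranked separately and the compounds with the lowest OD600 were carried forward as hits.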
System: Salmonella enterica serovar Typhimurium SL1344
Experiment: bacterial growth OD600 after 18 h with compound and polymyxin B; higher = more bacterial growth (less inhibition)
Details: 50 µM, Mueller-Hinton broth

Structure (SMILES)	bacterial growth OD600 (polymyxin B 0.75 µg/mL)	bacterial growth OD600 (polymyxin B 1 µg/mL)
Cn1cc(CN2CCCC(CNC(=O)c3cccnc3)C2)c(-c2ccccc2)n1 (stereo unspecified)	0.856	
CCN(CC1CCN(CCc2ccccc2C)CC1)C(=O)c1occc1C		1.13
COc1ccccc1C(=O)N1CCN(C(=O)C2CC(Cc3ccc(F)cc3)=NO2)CC1 (stereo unspecified)	0.909	
CCS(=O)(=O)Nc1cc(C(=O)NCCN2CCOCC2)c2c(c1)nc(-c1ccccc1)n2C	0.811	
CCOC(=O)C1(Cc2ccccc2Cl)CCN(Cc2ccccn2)CC1		0.763
CCn1nc(C)c(CNc2nc3nonc3nc2N2CCCCCC2)c1C		1.05
COc1cccc(CC2(CO)CCCN(Cc3ccccc3OC(F)F)C2)c1 (stereo unspecified)		0.739
COC(=O)c1ccc(-c2nc(CN3CCCC3c3cccc(OC)c3)c(C)o2)cc1 (stereo unspecified)		0.838
CCc1ccc(-c2cn3c(C(=O)N4CCC[C@H]4CO)csc3n2)cc1	0.57	
CCC1CN(C(=O)CCc2ccccc2OC)Cc2ccc(Cl)cc2O1 (stereo unspecified)	0.049	
Cc1c(CN2CCOc3ccc(C(O)Cc4ccccc4)cc3C2)cnn1C (stereo unspecified)	0.854	
O=C(Nc1ccc(Oc2ccccc2F)cc1)C1CCN(Cc2ccncc2)CC1		1.04
C=CCCC(=O)N1CCC(Oc2ccc(C(=O)NCCN(C)C)cc2Cl)CC1	0.839	
Cc1ccc(OCCN(C)C(=O)c2cc(Cn3nc(C)cc3C)[nH]n2)cc1	0.802	
Cn1nc(C(=O)N2CCCC(CCc3ccccc3C(F)(F)F)C2)ccc1=O (stereo unspecified)	0.583	
CCc1csc(CNC(=O)c2ccc(N3CCC[C@H]3CO)nc2)n1		0.928

Quoted from the listing:
`CCC1CN(C(=O)CCc2ccccc2OC)Cc2ccc(Cl)cc2O1` (stereo unspecified) – bacterial growth OD600 (polymyxin B 0.75 µg/mL): 0.049
`CCOC(=O)C1(Cc2ccccc2Cl)CCN(Cc2ccccn2)CC1` – bacterial growth OD600 (polymyxin B 1 µg/mL): 0.763

Further compounds follow.

Structure (SMILES)	bacterial growth OD600 (polymyxin B 0.75 µg/mL)	bacterial growth OD600 (polymyxin B 1 µg/mL)
CC1CCN(CC2(O)CCCN(CC(C)(C)C)C2=O)CC1 (stereo unspecified)		0.999
CCOc1cc(CN2CCC3(CC2)c2ccccc2[C@@H](NC(=O)CC)[C@@H]3OCC)ccc1OC	0.807	
COc1ccc(OC)c(S(=O)(=O)NCc2cccnc2N(C)C)c1		0.941
COC(=O)CCCC(=O)N1CCCC(CCc2ccccc2F)C1 (stereo unspecified)	0.617	
COc1ccc(OC2CCN(C3CCCC3)CC2)c(C(=O)N(C)Cc2ccn[nH]2)c1		1.2
CC(=O)N1CCC(N2CCCC(CCc3ccccc3)C2)CC1 (stereo unspecified)	0.888	
CC(C)(CNC1CCCN(c2nc3ccccc3s2)C1)CN1CCOCC1 (stereo unspecified)		0.819
CCCc1cc(CN(C)C(=O)CC2(c3ccccc3C)CC(=O)N(Cc3ccncc3)C2=O)n[nH]1 (stereo unspecified)	0.82	
CSCCC(=O)N1CCc2[nH]nc(-c3ccc(Cl)cc3)c2C1	0.006	
CN(CCc1ccccc1)C(=O)c1coc(Cn2cnc3ccccc32)n1		0.883
O=C(C1CCOCC1)N1CCC(C2CCN(c3ncccn3)CC2)C1 (stereo unspecified)	0.757	
COc1ccccc1-c1ccnc(-n2ncc(C(=O)NCCCc3ccncc3)c2C)n1	0.886	
CN1CCN(c2ccc(C(=O)N3CCCC(c4ccccc4)CC3)cn2)CC1 (stereo unspecified)		0.9
COc1ccccc1CCNC(=O)C1CCCN1c1nc(C)c2ccc(S(C)(=O)=O)cc2n1 (stereo unspecified)	0.827	
CCCn1cc(CN2CCN(Cc3ccc(OC)c(C)c3)C(CCO)C2)c(C)n1 (stereo unspecified)		1.06

— the supplement of paper PMC12889115
